This note sets out measurements from publication PMC8184751, “Proline/arginine dipeptide repeat polymers derail protein folding in amyotrophic lateral sclerosis” (Nature Communications, 2021).

Sequences of proteins named here, by UniProt entry; tags and fusion partners are left off. Residues count along the entry.
UniProt P62937, residues 2-164: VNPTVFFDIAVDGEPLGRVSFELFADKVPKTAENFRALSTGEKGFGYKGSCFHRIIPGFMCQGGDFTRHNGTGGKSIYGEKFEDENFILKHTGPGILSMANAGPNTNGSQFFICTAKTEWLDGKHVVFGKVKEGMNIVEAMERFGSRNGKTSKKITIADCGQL

The target of this experiment is T1, prolyl isomerase PPIA (human, UniProt P62937 2-164).
T1 construct: human PPIA (peptidyl-prolyl cis-trans isomerase A, cyclophilin A); gene cloned into a modified pET28a vector; 15N-labeled for the NMR titrations, unlabeled for ITC, crystallography and folding assays; source: E. coli BL21(DE3), purified (Ni-NTA, TEV cleavage, Superdex 75); 15N-labeled in M9 minimal media for NMR
Put plainly: condition: eightfold excess of GR20 (320 µM on 40 µM PPIA); NMR titration; 40 µM 15N-labeled PPIA titrated with repeat polymer from 0 to 320 µM in five steps; 1H-15N HSQC at 298 K; 25 mM HEPES, 100 mM NaCl, 2 mM DTT, pH 7.4; Kd from the attenuation of the cross-peak of Arg55 (equation for slow exchange); both purified.

No constants are given. Whether binding was seen depends on the method and setting.

For the molecule GRGRGRGRGRGRGRGRGRGRGRGRGRGRGRGRGRGRGRGR (acetylated at the N-terminus, amidated at the C-terminus) [20-dipeptide polymer GR20], the binding entry is given as “no binding”.
